Results deposited as PubChem BioAssay AID1159578 (Peter MacCallum Cancer Centre, 2015).

- Test: 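Knock-downs that alter how fast lymphatic endothelial cells migrate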 (primary screen)
- Cell system: human lymphatic endothelial cells
- Reagents: siRNA pool against human genes, 40 nM
- Duration: 48 h after transfection
- Detection: 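Cells stained with dye and imaged after a scratch; covered wound area and nuclei counted, duplicates averaged, migration set against mock wells and turned into a robust z-score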
- Direction: migration robust z-score: higher = faster migration into the scratch; nuclei per well: higher = more cells in the well
- Hit rule: 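Pools averaging fewer than 3300 nuclei are never called; remaining pools count as changed when migration robust z lies outside -2 to 2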
- Meaning of the calls: active = migration changed; inactive = no migration change, or too few cells
Here is an unselected part of about 18,000 reagents tested. Over the whole deposit, about 1,030 (5.7%) are marked active. 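Inactive calls also include pools with fewer than 3300 nuclei, whose migration was not assessed.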 The raw values are shown without normalisation. Unmarked entries are inactive. Not all columns of the deposit are shown.

For TFB1M (transcription factor B1, mitochondrial), the entry reads migration robust z-score 1.19; migration class with cell-count check migration z between -2 and 2; enough cells; nuclei per well, duplicate mean 5891.
Against CYB5R3 (cytochrome b5 reductase 3), the entry reads migration robust z-score 0.7; migration class with cell-count check migration z between -2 and 2; enough cells; nuclei per well, duplicate mean 5854.
Against ZNF358 (zinc finger protein 358), the entry reads migration robust z-score -0.82; migration class with cell-count check migration z between -2 and 2; enough cells; nuclei per well, duplicate mean 5554.
Depletion of INO80C (INO80 complex subunit C) gave: migration robust z-score -1.19; migration class with cell-count check migration z between -2 and 2; enough cells; nuclei per well, duplicate mean 5470.
ANKRD13A (ankyrin repeat domain 13A) showed migration robust z-score 1; migration class with cell-count check migration z between -2 and 2; enough cells; nuclei per well, duplicate mean 5274.
Silencing of TREM1 (triggering receptor expressed on myeloid cells 1) gave: migration robust z-score -0.31; migration class with cell-count check migration z between -2 and 2; enough cells; nuclei per well, duplicate mean 5114.
With knock-down of GPRIN1 (G protein regulated inducer of neurite outgrowth 1), the record shows migration robust z-score -0.74; migration class with cell-count check migration z between -2 and 2; enough cells; nuclei per well, duplicate mean 5517.
With knock-down of OR2C1 (olfactory receptor family 2 subfamily C member 1), the record shows migration robust z-score -0.34; migration class with cell-count check migration z between -2 and 2; enough cells; nuclei per well, duplicate mean 5314.
With knock-down of RNF150 (ring finger protein 150) the results were migration robust z-score 1.5; migration class with cell-count check migration z between -2 and 2; enough cells; nuclei per well, duplicate mean 6536.
Depletion of TMEM11 (transmembrane protein 11) resulted in: migration robust z-score -1.27; migration class with cell-count check migration z between -2 and 2; enough cells; nuclei per well, duplicate mean 4852.
For PAH (phenylalanine hydroxylase), the entry reads migration robust z-score 1.3; migration class with cell-count check migration z between -2 and 2; enough cells; nuclei per well, duplicate mean 5037.
With knock-down of RPS18 (ribosomal protein S18) the results were migration robust z-score -2.9 (active); migration class with cell-count check migration z below -2; enough cells; nuclei per well, duplicate mean 3562.
Depletion of CYP27A1 (cytochrome P450 family 27 subfamily A member 1) came out at: migration robust z-score 0.02; migration class with cell-count check migration z between -2 and 2; enough cells; nuclei per well, duplicate mean 5106.
Knock-down of PPP1R1A (protein phosphatase 1 regulatory inhibitor subunit 1A) resulted in: migration robust z-score -0.99; migration class with cell-count check migration z between -2 and 2; enough cells; nuclei per well, duplicate mean 5218.

In a second layout: results already given.
{"Gene": "RNF150 (ring finger protein 150)", "migration robust z-score": 1.5, "migration class with cell-count check": "migration z between -2 and 2; enough cells", "nuclei per well, duplicate mean": 6536}
{"Gene": "TMEM11 (transmembrane protein 11)", "migration robust z-score": -1.27, "migration class with cell-count check": "migration z between -2 and 2; enough cells", "nuclei per well, duplicate mean": 4852}
